Measurements reported in PubChem BioAssay AID1508597 (Cure First, 2020)
The deposit covers about 2,100 reagents; shown is a part drawn at random. 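Calls flag viability under 80% in either arm, not effects specific to rucaparib; the reference for percent is not stated.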 A reagent listed more than once was tested more than once; the source does not tell the runs apart. Reagent sequences are not shown. Not given: the 100% reference.

Assay: 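Knock-downs altering ovarian cancer cell survival with or without PARP inhibitor rucaparib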 (primary screen)
Cell system: human ovarian carcinoma lines grown from tumours: OCI-P5x (papillary serous) and OCI-C5x (clear cell)
Reagents: siRNA pool against human genes, 1.25 pmol siRNA per well
Duration: 72 h or 96 h, depending on the cell culture
Challenge: rucaparib 20 µM (about IC30) or vehicle, present until read-out
Detection: 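Luminescent ATP-based viability assay read 72 or 96 h after transfection, depending on culture, given as normalised percent viability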
Direction: viability, normalised: higher = more viable cells remaining
Active means: 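a well counts as a hit if its normalised viability is under 80 percent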
Meaning of the calls: active = viability under 80%; inactive = viability 80% or more

no.	gene knocked down	rucaparib or vehicle	cell line	technical replicate	viability, normalised (%)	call
1	MAP2K3	Rucaparib	OCI-C5x (clear cell)	1	43.6	active
2	MAP2K3	Rucaparib	OCI-C5x (clear cell)	1	49.6	active
3	MAP2K3	Rucaparib	OCI-C5x (clear cell)	2	66.4	active
4	MAP2K3	Rucaparib	OCI-C5x (clear cell)	2	49.5	active
5	MAP2K3	Rucaparib	OCI-C5x (clear cell)	3	55	active
6	MAP2K3	Rucaparib	OCI-C5x (clear cell)	3	63.7	active
7	MAP2K3	Rucaparib	OCI-P5x (serous)	1	82.3	inactive
8	MAP2K3	Rucaparib	OCI-P5x (serous)	1	53.4	active
9	MAP2K3	Rucaparib	OCI-P5x (serous)	2	77.5	active
10	MAP2K3	Rucaparib	OCI-P5x (serous)	2	51.1	active
11	MAP2K3	Rucaparib	OCI-P5x (serous)	3	82.9	inactive
12	MAP2K3	Rucaparib	OCI-P5x (serous)	3	62.8	active
13	MAP2K3	Vehicle	OCI-C5x (clear cell)	1	67.4	active
14	MAP2K3	Vehicle	OCI-C5x (clear cell)	1	76.5	active
15	MAP2K3	Vehicle	OCI-C5x (clear cell)	2	60.7	active
16	MAP2K3	Vehicle	OCI-C5x (clear cell)	2	73.1	active
17	MAP2K3	Vehicle	OCI-C5x (clear cell)	3	72	active
18	MAP2K3	Vehicle	OCI-C5x (clear cell)	3	38.8	active
19	MAP2K3	Vehicle	OCI-P5x (serous)	1	70.1	active
20	MAP2K3	Vehicle	OCI-P5x (serous)	1	95.1	inactive
21	MAP2K3	Vehicle	OCI-P5x (serous)	2	69.7	active
22	MAP2K3	Vehicle	OCI-P5x (serous)	2	80.7	inactive
23	MAP2K3	Vehicle	OCI-P5x (serous)	3	46.7	active
24	MAP2K3	Vehicle	OCI-P5x (serous)	3	79.9	active
25	SCYL2	Rucaparib	OCI-C5x (clear cell)	1	46.3	active
26	SCYL2	Rucaparib	OCI-C5x (clear cell)	2	46.5	active
27	SCYL2	Rucaparib	OCI-C5x (clear cell)	3	46.5	active
28	SCYL2	Rucaparib	OCI-P5x (serous)	1	66.5	active
29	SCYL2	Rucaparib	OCI-P5x (serous)	2	53.5	active
30	SCYL2	Rucaparib	OCI-P5x (serous)	3	62	active
31	SCYL2	Vehicle	OCI-C5x (clear cell)	1	60.3	active
32	SCYL2	Vehicle	OCI-C5x (clear cell)	2	55	active
33	SCYL2	Vehicle	OCI-C5x (clear cell)	3	45.9	active
34	SCYL2	Vehicle	OCI-P5x (serous)	1	83.2	inactive
35	SCYL2	Vehicle	OCI-P5x (serous)	2	70.1	active
36	SCYL2	Vehicle	OCI-P5x (serous)	3	68.9	active
37	BAZ1A	Rucaparib	OCI-C5x (clear cell)	1	65	active
38	BAZ1A	Rucaparib	OCI-C5x (clear cell)	2	56.8	active
39	BAZ1A	Rucaparib	OCI-C5x (clear cell)	3	49.3	active
40	BAZ1A	Rucaparib	OCI-P5x (serous)	1	79.2	active
41	BAZ1A	Rucaparib	OCI-P5x (serous)	2	101	inactive
42	BAZ1A	Rucaparib	OCI-P5x (serous)	3	83	inactive
43	BAZ1A	Vehicle	OCI-C5x (clear cell)	1	49	active
44	BAZ1A	Vehicle	OCI-C5x (clear cell)	2	66.3	active
45	BAZ1A	Vehicle	OCI-C5x (clear cell)	3	42.3	active
46	BAZ1A	Vehicle	OCI-P5x (serous)	1	69.7	active
47	BAZ1A	Vehicle	OCI-P5x (serous)	2	78.7	active
48	BAZ1A	Vehicle	OCI-P5x (serous)	3	89.2	inactive
49	CHIC1	Rucaparib	OCI-C5x (clear cell)	1	61.7	active
50	CHIC1	Rucaparib	OCI-C5x (clear cell)	2	41.2	active
51	CHIC1	Rucaparib	OCI-C5x (clear cell)	3	41.1	active
52	CHIC1	Rucaparib	OCI-P5x (serous)	1	55.9	active
53	CHIC1	Rucaparib	OCI-P5x (serous)	2	50.9	active
54	CHIC1	Rucaparib	OCI-P5x (serous)	3	52.4	active
55	CHIC1	Vehicle	OCI-C5x (clear cell)	1	53	active
56	CHIC1	Vehicle	OCI-C5x (clear cell)	2	50.9	active
57	CHIC1	Vehicle	OCI-C5x (clear cell)	3	53.4	active
58	CHIC1	Vehicle	OCI-P5x (serous)	1	58.2	active
59	CHIC1	Vehicle	OCI-P5x (serous)	2	57.1	active
60	CHIC1	Vehicle	OCI-P5x (serous)	3	80.1	inactive

Individual results from above:
CHIC1, rucaparib or vehicle Vehicle, cell line OCI-P5x (serous), technical replicate 2, call = active
SCYL2, rucaparib or vehicle Rucaparib, cell line OCI-C5x (clear cell), technical replicate 2, call = active
For “viability, normalised (%)”, BAZ1A, rucaparib or vehicle Rucaparib, cell line OCI-C5x (clear cell), technical replicate 1 is entered as 65
For “viability, normalised (%)”, BAZ1A, rucaparib or vehicle Rucaparib, cell line OCI-P5x (serous), technical replicate 2 has 101
Under “viability, normalised (%)”, CHIC1, rucaparib or vehicle Rucaparib, cell line OCI-P5x (serous), technical replicate 3 is entered as 52.4
CHIC1, rucaparib or vehicle Rucaparib, cell line OCI-C5x (clear cell), technical replicate 3, call → active
